Results: the supplement of paper PMC11264405

Key:
Assay in all cases: minimum inhibitory concentration
linezolid = compound: CC(=O)NC[C@H]1CN(c2ccc(N3CCOCC3)c(F)c2)C(=O)O1 [linezolid]
clindamycin = compound: CCC[C@@H]1C[C@@H](C(=O)N[C@@H]([C@H]2O[C@H](SC)[C@H](O)[C@@H](O)[C@H]2O)[C@H](C)Cl)N(C)C1 [clindamycin]
fidaxomicin = compound: CCc1c(Cl)c(O)c(Cl)c(O)c1C(=O)O[C@H]1[C@H](O)[C@H](OC)[C@H](OC/C2=C\C=C\C[C@H](O)/C(C)=C/[C@H](CC)[C@@H](O[C@@H]3OC(C)(C)[C@@H](OC(=O)C(C)C)[C@H](O)[C@@H]3O)/C(C)=C/C(C)=C/C[C@@H]([C@@H](C)O)OC2=O)O[C@@H]1C [fidaxomicin]
tigecycline = compound: CN(C)c1cc(NC(=O)CNC(C)(C)C)c(O)c2c1C[C@H]1C[C@H]3[C@H](N(C)C)C(O)=C(C(N)=O)C(=O)[C@@]3(O)C(O)=C1C2=O [tigecycline]
vancomycin = compound: CN[C@H](CC(C)C)C(=O)N[C@H]1C(=O)N[C@@H](CC(N)=O)C(=O)N[C@H]2C(=O)N[C@H]3C(=O)N[C@H](C(=O)N[C@H](C(=O)O)c4cc(O)cc(O)c4-c4cc3ccc4O)[C@H](O)c3ccc(c(Cl)c3)Oc3cc2cc(c3O[C@@H]2O[C@H](CO)[C@@H](O)[C@H](O)[C@H]2O[C@H]2C[C@](C)(N)[C@H](O)[C@H](C)O2)Oc2ccc(cc2Cl)[C@H]1O [vancomycin]
rifampicin = compound: CO[C@H]1/C=C/O[C@@]2(C)Oc3c(C)c(O)c4c(O)c(c(/C=N/N5CCN(C)CC5)c(O)c4c3C2=O)NC(=O)/C(C)=C\C=C\[C@H](C)[C@H](O)[C@@H](C)[C@@H](O)[C@@H](C)[C@H](OC(C)=O)[C@@H]1C [rifampicin]
imipenem = compound: C[C@@H](O)[C@H]1C(=O)N2C(C(=O)O)=C(SCCNC=N)C[C@H]12 [imipenem]
meropenem = compound: C[C@@H](O)[C@H]1C(=O)N2C(C(=O)O)=C(S[C@@H]3CN[C@H](C(=O)N(C)C)C3)[C@H](C)[C@H]12 [meropenem]
metronidazole = compound: Cc1ncc([N+](=O)[O-])n1CCO [metronidazole]

Test System	minimum inhibitory concentration (linezolid)	minimum inhibitory concentration (clindamycin)	minimum inhibitory concentration (fidaxomicin)	minimum inhibitory concentration (tigecycline)	minimum inhibitory concentration (vancomycin)	minimum inhibitory concentration (rifampicin)	minimum inhibitory concentration (imipenem)	minimum inhibitory concentration (meropenem)	minimum inhibitory concentration (metronidazole)
Clostridioides difficile PCR ribotype 078 isolate #364 (European region: South, country: Italy, isolate source: Animal, ribotype: 078)	2 µg/mL	8 µg/mL	0.015 µg/mL	0.125 µg/mL	1 µg/mL	< 0.001 µg/mL	2 µg/mL	2 µg/mL	< 0.125 µg/mL
Clostridioides difficile PCR ribotype 078 isolate #365 (European region: South, country: Italy, isolate source: Animal, ribotype: 078)	2 µg/mL	4 µg/mL	0.015 µg/mL	0.06 µg/mL	1 µg/mL	< 0.001 µg/mL	2 µg/mL	4 µg/mL	< 0.125 µg/mL
Clostridioides difficile PCR ribotype 078 isolate #366 (European region: West, country: Austria, isolate source: Animal, ribotype: 078)	4 µg/mL	2 µg/mL	0.03 µg/mL	0.06 µg/mL	0.5 µg/mL	< 0.001 µg/mL	2 µg/mL	2 µg/mL	0.25 µg/mL
Clostridioides difficile PCR ribotype 078 isolate #367 (European region: East, country: Poland, isolate source: Animal, ribotype: 078)	4 µg/mL	> 128 µg/mL	0.03 µg/mL	0.06 µg/mL	0.5 µg/mL	< 0.001 µg/mL	4 µg/mL	4 µg/mL	0.25 µg/mL
Clostridioides difficile PCR ribotype 078 isolate #368 (European region: East, country: Poland, isolate source: Animal, ribotype: 078)	4 µg/mL	2 µg/mL	0.03 µg/mL	0.06 µg/mL	0.5 µg/mL	< 0.001 µg/mL	4 µg/mL	4 µg/mL	0.25 µg/mL
Clostridioides difficile PCR ribotype 078 isolate #369 (European region: East, country: Poland, isolate source: Animal, ribotype: 078)	2 µg/mL	4 µg/mL	0.06 µg/mL	< 0.03 µg/mL	1 µg/mL	< 0.001 µg/mL	2 µg/mL	2 µg/mL	< 0.125 µg/mL
Clostridioides difficile PCR ribotype 078 isolate #370 (European region: East, country: Poland, isolate source: Animal, ribotype: 078)	2 µg/mL	4 µg/mL	0.03 µg/mL	< 0.03 µg/mL	1 µg/mL	< 0.001 µg/mL	2 µg/mL	2 µg/mL	< 0.125 µg/mL
Clostridioides difficile PCR ribotype 078 isolate #371 (European region: East, country: Poland, isolate source: Animal, ribotype: 078)	2 µg/mL	4 µg/mL	0.015 µg/mL	< 0.03 µg/mL	1 µg/mL	< 0.001 µg/mL	2 µg/mL	2 µg/mL	< 0.125 µg/mL
Clostridioides difficile PCR ribotype 078 isolate #372 (European region: East, country: Poland, isolate source: Animal, ribotype: 078)	2 µg/mL	2 µg/mL	0.06 µg/mL	< 0.03 µg/mL	1 µg/mL	< 0.001 µg/mL	2 µg/mL	4 µg/mL	0.25 µg/mL
Clostridioides difficile PCR ribotype 078 isolate #373 (European region: East, country: Poland, isolate source: Animal, ribotype: 078)	4 µg/mL	2 µg/mL	0.015 µg/mL	0.06 µg/mL	0.5 µg/mL	< 0.001 µg/mL	4 µg/mL	4 µg/mL	0.25 µg/mL
Clostridioides difficile PCR ribotype 081 isolate #374 (European region: West, country: Netherlands, isolate source: Animal, ribotype: 081)	2 µg/mL	16 µg/mL	0.004 µg/mL	< 0.03 µg/mL	1 µg/mL	< 0.001 µg/mL	1 µg/mL	2 µg/mL	0.25 µg/mL
Clostridioides difficile PCR ribotype 081 isolate #375 (European region: East, country: Poland, isolate source: Animal, ribotype: 081)	2 µg/mL	16 µg/mL	0.015 µg/mL	0.06 µg/mL	0.5 µg/mL	< 0.001 µg/mL	2 µg/mL	2 µg/mL	0.25 µg/mL
Clostridioides difficile PCR ribotype 081 isolate #376 (European region: East, country: Poland, isolate source: Animal, ribotype: 081)	2 µg/mL	8 µg/mL	0.008 µg/mL	< 0.03 µg/mL	0.5 µg/mL	< 0.001 µg/mL	2 µg/mL	2 µg/mL	0.25 µg/mL

An excerpt of these results, as comma-separated lines:
Test System,minimum inhibitory concentration (linezolid),minimum inhibitory concentration (clindamycin),minimum inhibitory concentration (fidaxomicin),minimum inhibitory concentration (tigecycline),minimum inhibitory concentration (vancomycin),minimum inhibitory concentration (rifampicin),minimum inhibitory concentration (imipenem),minimum inhibitory concentration (meropenem),minimum inhibitory concentration (metronidazole)
"Clostridioides difficile PCR ribotype 078 isolate #368 (European region: East, country: Poland, isolate source: Animal, ribotype: 078)",4 µg/mL,2 µg/mL,0.03 µg/mL,0.06 µg/mL,0.5 µg/mL,< 0.001 µg/mL,4 µg/mL,4 µg/mL,0.25 µg/mL
"Clostridioides difficile PCR ribotype 078 isolate #369 (European region: East, country: Poland, isolate source: Animal, ribotype: 078)",2 µg/mL,4 µg/mL,0.06 µg/mL,< 0.03 µg/mL,1 µg/mL,< 0.001 µg/mL,2 µg/mL,2 µg/mL,< 0.125 µg/mL
